Test results taken from US5446147A (Trustees of the University of Pennsylvania, priority 1992, dated 1995).

By UniProt entry, the sequences of proteins in these tests, tags left out.
UniProt P61169, whole entry: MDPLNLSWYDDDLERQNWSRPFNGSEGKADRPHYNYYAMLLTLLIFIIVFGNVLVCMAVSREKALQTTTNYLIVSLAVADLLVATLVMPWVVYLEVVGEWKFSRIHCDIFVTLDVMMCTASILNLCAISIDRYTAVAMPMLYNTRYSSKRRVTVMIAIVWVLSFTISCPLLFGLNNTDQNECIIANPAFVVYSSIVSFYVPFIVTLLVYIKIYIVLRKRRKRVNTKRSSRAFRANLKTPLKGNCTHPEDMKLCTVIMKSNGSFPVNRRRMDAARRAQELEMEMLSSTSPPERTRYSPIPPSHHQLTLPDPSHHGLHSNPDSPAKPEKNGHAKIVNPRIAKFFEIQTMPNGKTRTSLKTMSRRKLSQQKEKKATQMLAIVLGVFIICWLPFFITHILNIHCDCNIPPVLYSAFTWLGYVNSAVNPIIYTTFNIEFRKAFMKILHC

Biological target: T1, dopamine D2 receptor (Rat Striatal Membranes) (Rattus norvegicus, UniProt P61169)
T1 construct: Rat tissue homogenates were prepared as described previously; from tissue; host or cells: rat striatal membranes (tissue homogenate)
Experiment: Competition for ^125 I-FIDA-1 binding to rat striatal membranes
Conditions: 15 min at 37° C., nonspecific binding with 10 μM (+)butaclamol, read-out: Ki, inhibition constant on ^125 I-FIDA-1 binding
Protocol: Rat tissue homogenates were prepared as described previously. Murphy, R. A., et al., J. Med. Chem. 33, 171-178 (1990). The binding assays were performed by incubating 50 μL of tissue preparations containing 40-60 μg of protein with appropriate amounts of ^125 I-labeled ligand and competitors in a total volume of 0.2 mL of the assay buffer. After an incubation period of 15 min at 37° C. (with stirring), the samples were rapidly filtered in a cell harvester (Brandel M-24R) under vacuum through Whatman GF/B glass-fiber filters pretreated with […] protamine base and washed with 3×5 mL of cold (4° C.) 50 mM Tris-HCI buffer, pH 7.4. The nonspecific binding was obtained in the presence of 10 μM (+)butaclamol. The filters were counted in a γ counter (Beckman 5500) at an efficiency of 70%. Both Scatchard and competition experiments were analyzed with the iterative nonlinear least squares curve-fitting program LIGAND.

Ki: > 10 µM
Compound: CC(C)NCC(O)COc1cccc2ccccc12 (racemic) [(±) propranolol]
